These are yes or no findings as the source states them, for the method shown. In cells and extracts the contact can be indirect. A result given as binding can be weak or reduced; the word gives no strength. Sequences can lack the tags named with a protein.
T1: CST1-C truncation (amino acids 74-141), Myc-tagged (UniProt P01037)
T1 sequence: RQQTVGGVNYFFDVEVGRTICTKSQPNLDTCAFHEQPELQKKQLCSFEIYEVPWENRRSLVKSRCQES

T2: Myc-tagged full-length CST1 (CST1-FL-Myc) (UniProt P01037)
T2 sequence: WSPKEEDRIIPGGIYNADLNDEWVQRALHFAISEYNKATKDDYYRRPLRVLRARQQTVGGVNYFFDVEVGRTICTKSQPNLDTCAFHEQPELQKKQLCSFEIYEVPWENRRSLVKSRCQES

B1: Myc-tagged full-length CST1 (CST1-FL-Myc) (protein, UniProt P01037 21-141)
chain: T2 sequence
B2: Flag-tagged OTUD5 (enzyme, UniProt Q96G74 1-571)
chain: MTILPKKKPPPPDADPANEPPPPGPMPPAPRRGGGVGVGGGGTGVGGGDRDRDSGVVGARPRASPPPQGPLPGPPGALHRWALAVPPGAVAGPRPQQASPPPCGGPGGPGGGPGDALGAAAAGVGAAGVVVGVGGAVGVGGCCSGPGHSKRRRQAPGVGAVGGGSPEREEVGAGYNSEDEYEAAAARIEAMDPATVEQQEHWFEKALRDKKGFIIKQMKEDGACLFRAVADQVYGDQDMHEVVRKHCMDYLMKNADYFSNYVTEDFTTYINRKRKNNCHGNHIEMQAMAEMYNRPVEVYQYSTGTSAVEPINTFHGIHQNEDEPIRVSYHRNIHYNSVVNPNKATIGVGLGLPSFKPGFAEQSLMKNAIKTSEESWIEQQMLEDKKRATDWEATNEAIEEQVARESYLQWLRDQEKQARQVRGPSQPRKASATCSSATAAASSGLEEWTSRSPRQRSSASSPEHPELHAELGMKPPSPGTVLALAKPPSPCAPGTSSQFSAGADRATSPLVSLYPALECRALIQQMSPSAFGLNDWDDDEILASVLAVSQQEYLDSMKKNKVHRDPPPDKS

Columns and labels:
[1] = biological target: T1, CST1-C truncation (amino acids 74-141), Myc-tagged; experiment: co-IP; HEK293T cells transfected with CST1-FL/N/C-Myc and OTUB1-Flag, GPX4-HA plasmids; Myc protein immunoprecipitated; Western blot, 15% SDS-PAGE
[2] = biological target: T2, Myc-tagged full-length CST1 (CST1-FL-Myc); experiment: as above
HA-tagged GPX4 = experiment: co-IP; HEK293T cells transfected with HA-GPX4 and Flag-tagged OTUB1 or OTUD5, and/or Myc-tagged CST1; Western blot of Flag, HA and Myc after IP; precipitated protein not told

Row | Molecule | binding [1] | binding [2] | binding (HA-tagged GPX4)
1 | HA-tagged GPX4 (enzyme) | binds | binds | 
2 | B1 |  |  | binds
3 | B2 |  |  | no binding

— article PMC9816059
